# Assay results as given in the supplement of paper PMC11637464.
# Structures can show the parent of a compound that is named as a salt. This is one part of the list. Repeats are few or missing, and single values can be far off.
# System: primary mouse Muller glia with Ascl1 overexpression
# Assay: total cells recovered per well; higher = more cells recovered
# Method: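 Primary P11 mouse Muller glia carrying dox-inducible Ascl1 were treated with Tocriscreen Stem Cell Library compounds at 0.1, 1 or 10 uM together with doxycycline for 5 days, then profiled by sci-Plex hashing and sci-RNA-seq2. Cells were annotated by marker genes and cell-type counts per well were size-factor adjusted. Read-outs are the log2 fold change of Neuronal (NeuPre + bipolar) and ProL cell counts versus the Ascl1-only control wells of the same collection day, plus the raw number of recovered cells per well. There is one well per dose, and wells with fewer than 20 cells were discarded.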
Compound,total cells recovered per well (0.1 µM),total cells recovered per well (1 µM),total cells recovered per well (10 µM)
CC(=O)N(C)c1cccc(-c2ccc3nnc(C)n3n2)c1 (collection day: 2),110,117,107
O=C(O)CCCc1ccccc1 [Sodium 4-Phenylbutyrate] (collection day: 1),124,108,86
O=C(O)c1ccccc1C(=O)Nc1ccc(-c2ccccc2)cc1 [Kartogenin] (collection day: 2),91,127,132
"CCCC(CCC)C(=O)O [Valproic acid, sodium salt] (collection day: 1)",124,104,89
COc1cc2c(cc1-c1c(C)noc1C)ncc1[nH]c(=O)n([C@H](C)c3ccccn3)c12 [I-BET 151 dihydrochloride] (collection day: 2),124,65,48
CN1CCC[C@@H]1CCO[C@](C)(c1ccccc1)c1ccc(Cl)cc1 [Clemastine fumarate] (collection day: 1),50,41,
c1ccc2c(Oc3nc(Nc4ccc(N5CCOCC5)cc4)c4ncn(C5CCCCC5)c4n3)cccc2c1 [Purmorphamine] (collection day: 2),132,103,57
O=c1n(CCCN2CCN(c3cccc(Cl)c3)CC2)nc2ccccn12 [Trazodone hydrochloride] (collection day: 2),176,95,102
Nc1ncn([C@@H]2O[C@H](CO)[C@@H](O)[C@H]2O)c(=O)n1 [5-Azacytidine] (collection day: 2),51,65,101
Oc1nc(-c2ccc(C(F)(F)F)cc2)nc2c1CSCC2 (collection day: 2),91,93,85
COc1cccc(-c2cc(=O)c3ccccc3o2)c1N (collection day: 1),68,57,43
COc1cc2nc(N3CCCN(C)CC3)nc(NC3CCN(Cc4ccccc4)CC3)c2cc1OC (collection day: 2),85,61,
CCc1ccc(CCOc2ccc(CC3SC(=O)NC3=O)cc2)nc1 (configuration not stated) [Pioglitazone hydrochloride] (collection day: 2),68,103,87
Nc1nc(N)c2nc(-c3cccc(Cl)c3)c(N)nc2n1 [Epiblastin A] (collection day: 2),92,61,92
CC(C)N(CCCNC(=O)Nc1ccc(C(C)(C)C)cc1)C[C@H]1O[C@@H](n2ccc3c(N)ncnc32)[C@H](O)[C@@H]1O (collection day: 2),,72,62

# 2 entries drawn at random from the list so far:
Compound,total cells recovered per well (0.1 µM),total cells recovered per well (1 µM),total cells recovered per well (10 µM)
c1ccc2c(Oc3nc(Nc4ccc(N5CCOCC5)cc4)c4ncn(C5CCCCC5)c4n3)cccc2c1 [Purmorphamine] (collection day: 2),132,103,57
O=C(O)CCCc1ccccc1 [Sodium 4-Phenylbutyrate] (collection day: 1),124,108,86
